Reference: article PMC8550791
These are yes or no findings as the source states them, for the method shown.

Target: catalytic domain of MINDY2 (residues 241-504) (UniProt Q8NBR6)
Experiment: SEC-SAXS; Superdex 200 10/300 coupled to SAXS; 20 mM HEPES pH 7.5, 100 mM NaCl, 5 mM DTT; MINDY2 apo and non-covalent complexes of MINDY2^C266A with K48 chains; both purified

- binding: no binding
B1: catalytic domain of MINDY2 (residues 241-504) (domain or fragment, UniProt Q8NBR6 241-504)
chain: SVYHIKWIQWKEENTPIITQNENGPCPLLAILNVLLLAWKVKLPPMMEIITAEQLMEYLGDYMLDAKPKEISEIQRLNYEQNMSDAMAILHKLQTGLDVNVRFTGVRVFEYTPECIVFDLLDIPLYHGWLVDPQIDDIVKAVGNCSYNQLVEKIISCKQSDNSELVSEGFVAEQFLNNTATQLTYHGLCELTSTVQEGELCVFFRNNHFSTMTKYKGQLYLLVTDQGFLTEEKVVWESLHNVDGDGNFCDSEFHLRPPSDPETV
